# From PMC7862700
# The list shows a part of the results, in another mix than the full data. For part of these data: At the low end of the ranking the order means little. This is one part of the list. For part of these data: The exact form of the protein is not confirmed.
# Assays:
# Assay in all cases: DAPPL (digital affinity profiling via proximity ligation, sequencing)
# Details in all cases: 10 mM Tris-HCl pH 7.5, 50 mM NaCl, 1 mM DTT, 4% glycerol, room temperature, 30 min; GST-TFs on glutathione beads, 16-mer random dsDNA library, 0.1% …; high values mean tight binding; double strand, one strand shown; scale: fold enrichment (6-mer frequency, TF over GST control)
# [1] = target: T1, GABPA (UniProt Q06546)
# T1 sequence: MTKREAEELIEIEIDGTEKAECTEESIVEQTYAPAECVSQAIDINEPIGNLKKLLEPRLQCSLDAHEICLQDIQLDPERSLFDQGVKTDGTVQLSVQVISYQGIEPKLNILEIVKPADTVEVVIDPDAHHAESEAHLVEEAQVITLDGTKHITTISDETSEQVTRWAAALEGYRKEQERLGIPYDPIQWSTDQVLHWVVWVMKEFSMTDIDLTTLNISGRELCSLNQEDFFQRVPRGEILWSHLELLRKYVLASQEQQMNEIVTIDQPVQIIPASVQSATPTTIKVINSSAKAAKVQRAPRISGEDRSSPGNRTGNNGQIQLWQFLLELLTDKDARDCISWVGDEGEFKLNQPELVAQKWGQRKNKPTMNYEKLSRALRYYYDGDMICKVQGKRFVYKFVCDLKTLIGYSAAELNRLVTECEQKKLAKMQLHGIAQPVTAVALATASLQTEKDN
# [2] = target: T2, ETS1 (UniProt P14921)
# T2 sequence: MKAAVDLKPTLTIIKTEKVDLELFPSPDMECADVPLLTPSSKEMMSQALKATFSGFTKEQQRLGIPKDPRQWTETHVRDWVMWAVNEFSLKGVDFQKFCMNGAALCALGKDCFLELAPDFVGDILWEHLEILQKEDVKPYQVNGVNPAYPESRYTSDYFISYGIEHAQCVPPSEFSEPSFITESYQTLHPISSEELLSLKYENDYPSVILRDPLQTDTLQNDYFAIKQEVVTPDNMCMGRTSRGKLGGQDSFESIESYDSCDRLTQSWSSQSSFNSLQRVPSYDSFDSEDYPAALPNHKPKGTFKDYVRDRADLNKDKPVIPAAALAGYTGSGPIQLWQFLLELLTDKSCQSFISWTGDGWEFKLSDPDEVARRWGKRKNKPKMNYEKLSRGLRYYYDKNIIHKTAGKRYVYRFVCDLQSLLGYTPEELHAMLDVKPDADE
# [3] = target: T3, SPDEF (UniProt O95238)
# T3 sequence: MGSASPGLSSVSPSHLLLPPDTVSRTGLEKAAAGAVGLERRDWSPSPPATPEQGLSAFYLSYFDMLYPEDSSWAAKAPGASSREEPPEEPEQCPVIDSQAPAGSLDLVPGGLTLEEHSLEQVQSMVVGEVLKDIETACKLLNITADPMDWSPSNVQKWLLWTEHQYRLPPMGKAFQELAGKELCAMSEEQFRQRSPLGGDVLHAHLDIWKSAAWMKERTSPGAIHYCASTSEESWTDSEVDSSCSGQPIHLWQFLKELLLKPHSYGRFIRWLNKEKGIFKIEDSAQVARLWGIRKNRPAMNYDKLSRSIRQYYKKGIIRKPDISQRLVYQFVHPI
Sequence,binding signal [1],binding signal [2],binding signal [3]
TGGTTG,0.927,1.02,0.993
TCATCG,0.942,0.937,0.916
ATAGTG,0.959,0.944,0.837
CGAAGG,1,0.885,0.819
AGGGAA,0.837,0.929,0.916
GCGTCT,1.02,1.23,0.983
CAGCGC,1.01,0.926,0.837
GCGCGT,0.78,0.753,0.799
TCTGAG,0.937,0.954,0.911
TCTCCT,1.53,1.54,1.32
ACTCGG,0.975,0.95,0.968
GCCACA,0.986,0.974,0.976
TAGGTA,0.993,0.972,1.02
CACCTA,1.04,0.994,0.959
TGGGCA,0.957,0.956,0.981
TAATCG,1.14,1.03,1.05
CGCAAT,0.907,1,0.916
GAAACC,0.959,0.97,0.994
GTCAAA,0.936,0.867,0.832
GCCCGA,1.02,0.995,0.983
CGAGGT,0.96,0.923,0.994
GATCAC,0.968,1.01,1
GTTTTA,1.14,1.15,1.04

# Whole records from above.
# TAGGTA as listed: binding signal [1] = 0.993; binding signal [2] = 0.972; binding signal [3] = 1.02
# TCTCCT as listed: binding signal [1] = 1.53; binding signal [2] = 1.54; binding signal [3] = 1.32
# GTCAAA as listed: binding signal [1] = 0.936; binding signal [2] = 0.867; binding signal [3] = 0.832

# Additional entries.

Sequence,binding signal [1],binding signal [2],binding signal [3]
GATCTG,0.918,0.902,0.969
AGAAGA,0.939,0.921,0.831
GGTTAC,0.929,1.05,0.978
AAGTAT,1.4,1.43,1.31
GTGGCA,0.931,1.04,0.933
ACCAAG,0.895,0.889,0.879
GATCGA,0.838,0.801,0.783
AAATCG,0.948,1.06,0.942
GTGTAA,0.901,0.938,0.893
AATGTG,0.996,0.929,0.986
GATAAG,0.957,0.871,0.967
ACTCAG,0.944,0.995,0.964
CTGGCG,0.761,0.766,0.806
TTAGTG,0.841,0.808,0.946
TATTAG,0.991,1.06,1.06
CGAAGA,0.802,0.822,0.773
ATTCGG,0.959,1.01,0.803
ACATCG,0.998,1.05,1.08
TGAAGC,0.997,1.03,0.994
TGTCAG,0.898,0.899,0.843
AGGGAT,0.838,0.773,0.812
CTGAGG,0.8,0.903,0.758
